Assay results published in PubChem BioAssay AID504834 (National Center for Advancing Translational Sciences (NCATS), 2011).
Screen size: about 320,000 compounds; about 22,000 (6.9%) were called active. Listed are the inconclusive results; actives and inactives stand elsewhere. The call rests on the fitted dose curve; in most records, active means well fitted inhibition curve with a large enough effect; inconclusive means small, poorly fitted or top-dose-only effect, or another doubt; inactive means no such curve, though single readings can be large or run the other way.

Assay: Primary qHTS for delayed death inhibitors of the malarial parasite plastid, 96 hour incubation
Conditions: P. falciparum luciferase reporter growth
Potency means the concentration at half of the fitted maximal effect.

Row | SMILES | Potency
1 | O=[N+]([O-])c1cc([N+](=O)[O-])c(Nc2nnnn2CCO)c([N+](=O)[O-])c1 | inconclusive: 465 nM
2 | CC1=C2N=C(C=C3N=C(C(C)=C4[N-][C@@](C)([C@@H]5N=C1[C@](C)(CCC(=O)NC[C@@H](C)OP(=O)([O-])O[C@H]1[C@@H](O)[C@@H](n6cnc7cc(C)c(C)cc76)O[C@@H]1CO)[C@H]5CC(N)=O)[C@@](C)(CC(N)=O)[C@@H]4CCC(N)=O)[C@@](C)(CC(N)=O)[C@@H]3CCC(N)=O)C(C)(C)[C@@H]2CCC(N)=O.[C-]#N.[Co+3] | inconclusive: 13100 nM
3 | CP(=O)(Nc1cccc(Br)c1)Oc1ccccc1 (centres undefined) | inconclusive: 738 nM
4 | Cc1cc(C)cc(OP(C)(=O)Nc2ccc(C)cc2C)c1 (centres undefined) | inconclusive: 11700 nM
5 | Cc1ccc(NP(C)(=O)Oc2ccccc2)c(C)c1 (centres undefined) | inconclusive: 9280 nM
6 | COc1ccccc1OP(C)(=O)Nc1ccc(C)cc1 (centres undefined) | inconclusive: 522 nM
7 | CCOC(=O)c1ccc(NP(C)(=O)Oc2ccccc2)cc1 (centres undefined) | inconclusive: 11700 nM
8 | Cc1cc(C)cc(OP(C)(N)=O)c1 (centres undefined) | inconclusive: 18500 nM
9 | O=[N+]([O-])c1cc([N+](=O)[O-])c(Nc2cccnc2)c([N+](=O)[O-])c1 | inconclusive: 18500 nM
10 | O=[N+]([O-])c1ccc2c(c1)C=Nc1ccccc1O2 | inconclusive: 1170 nM
11 | C=C(CC1CC(O)[C@]2(C)OC3CC4OC5C[C@]6(C)O[C@]7(C)CCC8OC9C[C@]%10(C)OC%11C(C)=CC(=O)OC%11CC%10OC9C[C@@H](C)C8OC7CC6O[C@]5(C)C/C=C\C4OC3CC2O1)C(=O)O (some centres undefined) | inconclusive: 1650 nM
12 | CCOC(=O)c1ccc(NP(C)(=O)Oc2ccc(OC)cc2)cc1 (centres undefined) | inconclusive: 11700 nM
13 | C=C(COC(C)=O)CC1CC(O)[C@]2(C)OC3CC4OC5C[C@]6(C)O[C@]7(C)CCC8OC9C[C@]%10(C)OC%11C(C)=CC(=O)OC%11CC%10OC9C[C@@H](C)C8OC7CC6O[C@]5(C)C/C=C\C4OC3CC2O1 (some centres undefined) | inconclusive: 6570 nM
14 | CP(=O)(Nc1ccc(SC(F)(F)F)cc1)Oc1ccc(Cl)cc1 (centres undefined) | inconclusive: 329 nM
15 | Cc1cccc(C)c1OP(C)(=O)Nc1ccc(SC(F)(F)F)cc1 (centres undefined) | inconclusive: 18500 nM
16 | Cc1cc(C)cc(OP(C)(=O)Nc2ccc(SC(F)(F)F)cc2)c1 (centres undefined) | inconclusive: 2620 nM
17 | CN(C)C(=O)c1c([N+](=O)[O-])cc([N+](=O)[O-])cc1[N+](=O)[O-] | inconclusive: 3290 nM
18 | COc1ccc(OP(C)(=O)Nc2ccc(Br)cc2)cc1 (centres undefined) | inconclusive: 329 nM
19 | CC(C)OP(=O)(F)OC(C)C | inconclusive: 2130 nM
20 | C/C1=C2N=C(/C=C3N=C(/C(C)=C4\[N-][C@@](C)([C@H]5N=C1[C@@](C)(CCC(=O)NC[C@H](C)OP(=O)([O-])O[C@@H]1[C@H](O)[C@H](n6cnc7cc(C)c(C)cc76)O[C@@H]1CO)[C@@H]5CC(N)=O)[C@](C)(CC(N)=O)[C@H]4CCC(N)=O)[C@@](C)(CC(N)=O)[C@@H]\3CCC(N)=O)C(C)(C)[C@@H]/2CCC(N)=O.[C-]#N.[Co+3] | inconclusive: 2280 nM
21 | COc1ccc(OP(C)(=O)Nc2ccccc2Br)cc1 (centres undefined) | inconclusive: 9280 nM
22 | COc1ccccc1OP(C)(=O)Nc1ccc(C)cc1C (centres undefined) | inconclusive: 18.5 nM
23 | CCc1ccc(OP(C)(=O)O)cc1 | inconclusive: 18500 nM
24 | COc1ccccc1OP(C)(=O)Nc1ccc(Br)cc1 (centres undefined) | inconclusive: 415 nM
25 | CP(=O)(Nc1ccccc1)Oc1ccc(F)cc1 (centres undefined) | inconclusive: 165 nM
26 | CCCCCOc1ccc(NP(C)(=O)Oc2ccc(Cl)cc2Cl)cc1 (centres undefined) | inconclusive: 370 nM
27 | COc1ccc(OP(C)(=O)Nc2ccc(SC(F)(F)F)cc2)cc1 (centres undefined) | inconclusive: 10400 nM
28 | CP(=O)(Nc1ccc2c(c1)OCCO2)Oc1ccccc1 (centres undefined) | inconclusive: 18500 nM
29 | CP(=O)(Nc1ccc(SC(F)(F)F)cc1)Oc1ccc(F)cc1 (centres undefined) | inconclusive: 165 nM
